Measurements reported in article PMC4574948.
Results are given in words; binding and its absence hold for the method and conditions named. In cells and extracts the contact can be indirect. Some binding calls cover weakened binding; strength is not graded here.

The chains behind the UniProt entries cited, without tags or fusion partners. Residues count along the entry.
UniProt O14497: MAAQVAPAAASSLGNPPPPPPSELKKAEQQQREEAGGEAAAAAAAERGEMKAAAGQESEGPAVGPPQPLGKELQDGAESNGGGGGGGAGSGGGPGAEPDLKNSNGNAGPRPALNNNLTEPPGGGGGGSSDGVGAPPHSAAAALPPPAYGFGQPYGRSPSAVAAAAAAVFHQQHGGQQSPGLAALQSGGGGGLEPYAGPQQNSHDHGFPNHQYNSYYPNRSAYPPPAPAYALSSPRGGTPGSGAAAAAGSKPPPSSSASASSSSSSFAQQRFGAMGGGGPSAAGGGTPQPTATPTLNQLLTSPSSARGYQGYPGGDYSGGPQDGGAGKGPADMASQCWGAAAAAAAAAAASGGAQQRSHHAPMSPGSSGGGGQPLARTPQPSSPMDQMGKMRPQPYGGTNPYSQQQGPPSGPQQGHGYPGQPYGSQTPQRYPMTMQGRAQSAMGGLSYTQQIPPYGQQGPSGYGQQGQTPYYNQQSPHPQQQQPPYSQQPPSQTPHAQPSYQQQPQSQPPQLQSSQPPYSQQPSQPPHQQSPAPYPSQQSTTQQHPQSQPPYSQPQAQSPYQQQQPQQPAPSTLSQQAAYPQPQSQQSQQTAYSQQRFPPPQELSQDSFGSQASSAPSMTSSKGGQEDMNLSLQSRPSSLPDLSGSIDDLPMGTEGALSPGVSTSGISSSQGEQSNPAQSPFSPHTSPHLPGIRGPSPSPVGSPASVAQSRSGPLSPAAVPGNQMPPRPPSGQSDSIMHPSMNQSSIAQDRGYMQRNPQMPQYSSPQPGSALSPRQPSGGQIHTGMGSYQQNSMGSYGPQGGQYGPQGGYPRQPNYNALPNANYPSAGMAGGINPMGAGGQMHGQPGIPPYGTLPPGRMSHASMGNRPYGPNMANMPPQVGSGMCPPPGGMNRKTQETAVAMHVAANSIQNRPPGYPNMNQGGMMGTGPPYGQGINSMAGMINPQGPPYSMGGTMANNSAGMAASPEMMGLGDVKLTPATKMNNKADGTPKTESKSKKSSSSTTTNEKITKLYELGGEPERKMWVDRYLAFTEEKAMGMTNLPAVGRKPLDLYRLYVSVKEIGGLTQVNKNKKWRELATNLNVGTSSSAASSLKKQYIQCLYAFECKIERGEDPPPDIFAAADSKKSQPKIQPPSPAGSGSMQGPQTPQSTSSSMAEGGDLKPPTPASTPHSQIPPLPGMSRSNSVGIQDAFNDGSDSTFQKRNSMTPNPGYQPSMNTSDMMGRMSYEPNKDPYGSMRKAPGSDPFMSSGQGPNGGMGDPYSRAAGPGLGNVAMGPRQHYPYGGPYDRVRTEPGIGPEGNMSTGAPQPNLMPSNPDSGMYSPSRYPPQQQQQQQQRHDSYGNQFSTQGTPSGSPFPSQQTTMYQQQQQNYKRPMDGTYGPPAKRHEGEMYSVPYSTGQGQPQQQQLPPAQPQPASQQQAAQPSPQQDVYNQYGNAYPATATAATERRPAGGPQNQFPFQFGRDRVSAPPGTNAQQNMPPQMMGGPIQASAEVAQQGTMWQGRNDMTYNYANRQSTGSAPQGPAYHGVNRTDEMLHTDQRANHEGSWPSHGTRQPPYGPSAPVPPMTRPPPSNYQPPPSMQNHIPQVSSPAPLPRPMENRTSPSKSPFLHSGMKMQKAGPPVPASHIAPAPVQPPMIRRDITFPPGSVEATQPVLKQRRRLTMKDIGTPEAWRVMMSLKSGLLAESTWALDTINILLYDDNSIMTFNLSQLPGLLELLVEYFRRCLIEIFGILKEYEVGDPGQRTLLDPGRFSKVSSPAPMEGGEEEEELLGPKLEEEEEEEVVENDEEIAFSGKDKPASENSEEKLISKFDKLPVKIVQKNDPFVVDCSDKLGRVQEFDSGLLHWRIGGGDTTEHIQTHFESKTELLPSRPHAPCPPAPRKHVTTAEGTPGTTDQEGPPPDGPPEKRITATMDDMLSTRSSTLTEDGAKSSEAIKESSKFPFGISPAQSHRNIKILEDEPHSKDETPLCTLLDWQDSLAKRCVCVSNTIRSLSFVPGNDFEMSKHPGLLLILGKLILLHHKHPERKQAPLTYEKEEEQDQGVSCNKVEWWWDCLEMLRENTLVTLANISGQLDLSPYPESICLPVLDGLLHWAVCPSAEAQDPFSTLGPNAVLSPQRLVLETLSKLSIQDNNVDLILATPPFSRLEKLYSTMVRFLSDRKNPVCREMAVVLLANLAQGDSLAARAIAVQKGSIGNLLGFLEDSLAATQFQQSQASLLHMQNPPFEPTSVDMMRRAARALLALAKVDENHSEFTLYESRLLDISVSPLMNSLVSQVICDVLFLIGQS
UniProt P06401, residues 165-933: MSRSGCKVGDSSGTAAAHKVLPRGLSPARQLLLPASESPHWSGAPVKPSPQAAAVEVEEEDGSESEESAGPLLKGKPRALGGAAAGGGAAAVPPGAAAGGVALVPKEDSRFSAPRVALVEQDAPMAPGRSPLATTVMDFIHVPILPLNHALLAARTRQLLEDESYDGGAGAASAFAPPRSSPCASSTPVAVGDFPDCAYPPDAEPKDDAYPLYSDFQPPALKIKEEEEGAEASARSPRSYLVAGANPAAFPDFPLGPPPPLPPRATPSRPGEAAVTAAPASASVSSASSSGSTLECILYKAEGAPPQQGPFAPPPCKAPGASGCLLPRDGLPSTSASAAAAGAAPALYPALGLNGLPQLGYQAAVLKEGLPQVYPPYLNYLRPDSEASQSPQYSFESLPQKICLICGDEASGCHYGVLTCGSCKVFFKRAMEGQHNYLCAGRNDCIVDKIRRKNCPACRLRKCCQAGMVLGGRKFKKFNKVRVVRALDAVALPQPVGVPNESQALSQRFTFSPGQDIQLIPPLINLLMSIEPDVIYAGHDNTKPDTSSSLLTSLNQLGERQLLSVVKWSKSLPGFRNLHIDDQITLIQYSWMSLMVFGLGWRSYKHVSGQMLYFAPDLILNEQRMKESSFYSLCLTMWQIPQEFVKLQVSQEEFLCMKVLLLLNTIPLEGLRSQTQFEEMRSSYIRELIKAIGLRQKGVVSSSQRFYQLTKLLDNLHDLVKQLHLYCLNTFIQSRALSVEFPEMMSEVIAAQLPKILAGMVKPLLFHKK

Biological target: AT-rich interactive domain 1A protein (ARID1A) (human (endogenous in Ishikawa)) (UniProt O14497)
Test: co-IP; Ishikawa cells transfected with human PR-A or PR-B; lysis buffer 150 mM NaCl, 0.125% Nonidet P-40, 2.5 mM EDTA, 10 mM Tris-HCl pH 7.4; immunoprecipitated with ARID1A antibodies (Abnova) and protein A-agarose overnight at 4°C; western blot with anti-PGR antibody

human progesterone receptor isoform A (PR-A) (from UniProt P06401-2 1-769)
binding: binds
